B1: VPS39 (protein, UniProt Q96JC1 1-886)
chain: MHDAFEPVPILEKLPLQIDCLAAWEEWLLVGTKQGHLLLYRIRKDVVPADVASPESGSCNRFEVTLEKSNKNFSKKIQQIHVVSQFKILVSLLENNIYVHDLLTFQQITTVSKAKGASLFTCDLQHTETGEEVLRMCVAVKKKLQLYFWKDREFHELQGDFSVPDVPKSMAWCENSICVGFKRDYYLIRVDGKGSIKELFPTGKQLEPLVAPLADGKVAVGQDDLTVVLNEEGICTQKCALNWTDIPVAMEHQPPYIIAVLPRYVEIRTFEPRLLVQSIELQRPRFITSGGSNIIYVASNHFVWRLIPVPMATQIQQLLQDKQFELALQLAEMKDDSDSEKQQQIHHIKNLYAFNLFCQKRFDESMQVFAKLGTDPTHVMGLYPDLLPTDYRKQLQYPNPLPVLSGAELEKAHLALIDYLTQKRSQLVKKLNDSDHQSSTSPLMEGTPTIKSKKKLLQIIDTTLLKCYLHTNVALVAPLLRLENNHCHIEESEHVLKKAHKYSELIILYEKKGLHEKALQVLVDQSKKANSPLKGHERTVQYLQHLGTENLHLIFSYSVWVLRDFPEDGLKIFTEDLPEVESLPRDRVLGFLIENFKGLAIPYLEHIIHVWEETGSRFHNCLIQLYCEKVQGLMKEYLLSFPAGKTPVPAGEEEGELGEYRQKLLMFLEISSYYDPGRLICDFPFDGLLEERALLLGRMGKHEQALFIYVHILKDTRMAEEYCHKHYDRNKDGNKDVYLSLLRMYLSPPSIHCLGPIKLELLEPKANLQAALQVLELHHSKLDTTKALNLLPANTQINDIRIFLEKVLEENAQKKRFNQVLKNLLHAEFLRVQEERILHQQVKCIITEEKVCMVCKKKIGNSAFARYPNGVVVHYFCSKEVNPADT
B2: LONP1 (protein, UniProt P36776 68-959)
chain: FWEASSRGGGAFSGGEDASEGGAEEGAGGAGGSAGAGEGPVITALTPMTIPDVFPHLPLIAITRNPVFPRFIKIIEVKNKKLVELLRRKVRLAQPYVGVFLKRDDSNESDVVESLDEIYHTGTFAQIHEMQDLGDKLRMIVMGHRRVHISRQLEVEPEEPEAENKHKPRRKSKRGKKEAEDELSARHPAELAMEPTPELPAEVLMVEVENVVHEDFQVTEEVKALTAEIVKTIRDIIALNPLYRESVLQMMQAGQRVVDNPIYLSDMGAALTGAESHELQDVLEETNIPKRLYKALSLLKKEFELSKLQQRLGREVEEKIKQTHRKYLLQEQLKIIKKELGLEKDDKDAIEEKFRERLKELVVPKHVMDVVDEELSKLGLLDNHSSEFNVTRNYLDWLTSIPWGKYSNENLDLARAQAVLEEDHYGMEDVKKRILEFIAVSQLRGSTQGKILCFYGPPGVGKTSIARSIARALNREYFRFSVGGMTDVAEIKGHRRTYVGAMPGKIIQCLKKTKTENPLILIDEVDKIGRGYQGDPSSALLELLDPEQNANFLDHYLDVPVDLSKVLFICTANVTDTIPEPLRDRMEMINVSGYVAQEKLAIAERYLVPQARALCGLDESKAKLSSDVLTLLIKQYCRESGVRNLQKQVEKVLRKSAYKIVSGEAESVEVTPENLQDFVGKPVFTVERMYDVTPPGVVMGLAWTAMGGSTLFVETSLRRPQDKDAKGDKDGSLEVTGQLGEVMKESARIAYTFARAFLMQHAPANDYLVTSHIHLHVPEGATPKDGPSAGCTIVTALLSLAMGRPVRQNLAMTGEVSLTGKILPVGGIKEKTIAAKRAGVTCIVLPAENKKDFYDLAAFITEGLEVHFVEHYREIFDIAFPDEQAEALAVER
B3: HNRNPL (protein, UniProt P14866 1-589)
chain: MSRRLLPRAEKRRRRLEQRQQPDEQRRRSGAMVKMAAAGGGGGGGRYYGGGSEGGRAPKRLKTDNAGDQHGGGGGGGGGAGAAGGGGGGENYDDPHKTPASPVVHIRGLIDGVVEADLVEALQEFGPISYVVVMPKKRQALVEFEDVLGACNAVNYAADNQIYIAGHPAFVNYSTSQKISRPGDSDDSRSVNSVLLFTILNPIYSITTDVLYTICNPCGPVQRIVIFRKNGVQAMVEFDSVQSAQRAKASLNGADIYSGCCTLKIEYAKPTRLNVFKNDQDTWDYTNPNLSGQGDPGSNPNKRQRQPPLLGDHPAEYGGPHGGYHSHYHDEGYGPPPPHYEGRRMGPPVGGHRRGPSRYGPQYGHPPPPPPPPEYGPHADSPVLMVYGLDQSKMNCDRVFNVFCLYGNVEKVKFMKSKPGAAMVEMADGYAVDRAITHLNNNFMFGQKLNVCVSKQPAIMPGQSYGLEDGSCSYKDFSESRNNRFSTPEQAAKNRIQHPSNVLHFFNAPLEVTEENFFEICDELGVKRPSSVKVFSGKSERSSSGLLEWESKSDALETLGFLNHYQMKNPNGPYPYTLKLCFSTAQHAS
B4: FKBP4 (protein, UniProt Q02790 1-459)
chain: MTAEEMKATESGAQSAPLPMEGVDISPKQDEGVLKVIKREGTGTEMPMIGDRVFVHYTGWLLDGTKFDSSLDRKDKFSFDLGKGEVIKAWDIAIATMKVGEVCHITCKPEYAYGSAGSPPKIPPNATLVFEVELFEFKGEDLTEEEDGGIIRRIQTRGEGYAKPNEGAIVEVALEGYYKDKLFDQRELRFEIGEGENLDLPYGLERAIQRMEKGEHSIVYLKPSYAFGSVGKEKFQIPPNAELKYELHLKSFEKAKESWEMNSEEKLEQSTIVKERGTVYFKEGKYKQALLQYKKIVSWLEYESSFSNEEAQKAQALRLASHLNLAMCHLKLQAFSAAIESCNKALELDSNNEKGLFRRGEAHLAVNDFELARADFQKVLQLYPNNKAAKTQLAVCQQRIRRQLAREKKLYANMFERLAEEENKAKAEASSGDHPTDTEMKEEQKSNTAGSQSQVETEA
B5: PFKL (protein, UniProt P17858 1-780)
chain: MAAVDLEKLRASGAGKAIGVLTSGGDAQGMNAAVRAVTRMGIYVGAKVFLIYEGYEGLVEGGENIKQANWLSVSNIIQLGGTIIGSARCKAFTTREGRRAAAYNLVQHGITNLCVIGGDGSLTGANIFRSEWGSLLEELVAEGKISETTARTYSHLNIAGLVGSIDNDFCGTDMTIGTDSALHRIMEVIDAITTTAQSHQRTFVLEVMGRHCGYLALVSALASGADWLFIPEAPPEDGWENFMCERLGETRSRGSRLNIIIIAEGAIDRNGKPISSSYVKDLVVQRLGFDTRVTVLGHVQRGGTPSAFDRILSSKMGMEAVMALLEATPDTPACVVTLSGNQSVRLPLMECVQMTKEVQKAMDDKRFDEATQLRGGSFENNWNIYKLLAHQKPPKEKSNFSLAILNVGAPAAGMNAAVRSAVRTGISHGHTVYVVHDGFEGLAKGQVQEVGWHDVAGWLGRGGSMLGTKRTLPKGQLESIVENIRIYGIHALLVVGGFEAYEGVLQLVEARGRYEELCIVMCVIPATISNNVPGTDFSLGSDTAVNAAMESCDRIKQSASGTKRRVFIVETMGGYCGYLATVTGIAVGADAAYVFEDPFNIHDLKVNVEHMTEKMKTDIQRGLVLRNEKCHDYYTTEFLYNLYSSEGKGVFDCRTNVLGHLQQGGAPTPFDRNYGTKLGVKAMLWLSEKLREVYRKGRVFANAPDSACVIGLKKKAVAFSPVTELKKDTDFEHRMPREQWWLSLRLMLKMLAQYRISMAAYVSGELEHVTRRTLSMDKGF
B6: GTF3C4 (protein, UniProt Q9UKN8 1-822)
chain: MNTADQARVGPADDGPAPSGEEEGEGGGEAGGKEPAADAAPGPSAAFRLMVTRREPAVKLQYAVSGLEPLAWSEDHRVSVSTARSIAVLELICDVHNPGQDLVIHRTSVPAPLNSCLLKVGSKTEVAECKEKFAASKDPTVSQTFMLDRVFNPEGKALPPMRGFKYTSWSPMGCDANGRCLLAALTMDNRLTIQANLNRLQWVQLVDLTEIYGERLYETSYRLSKNEAPEGNLGDFAEFQRRHSMQTPVRMEWSGICTTQQVKHNNECRDVGSVLLAVLFENGNIAVWQFQLPFVGKESISSCNTIESGITSPSVLFWWEYEHNNRKMSGLIVGSAFGPIKILPVNLKAVKGYFTLRQPVILWKEMDQLPVHSIKCVPLYHPYQKCSCSLVVAARGSYVFWCLLLISKAGLNVHNSHVTGLHSLPIVSMTADKQNGTVYTCSSDGKVRQLIPIFTDVALKFEHQLIKLSDVFGSVRTHGIAVSPCGAYLAIITTEGMINGLHPVNKNYQVQFVTLKTFEEAAAQLLESSVQNLFKQVDLIDLVRWKILKDKHIPQFLQEALEKKIESSGVTYFWRFKLFLLRILYQSMQKTPSEALWKPTHEDSKILLVDSPGMGNADDEQQEEGTSSKQVVKQGLQERSKEGDVEEPTDDSLPTTGDAGGREPMEEKLLEIQGKIEAVEMHLTREHMKRVLGEVYLHTWITENTSIPTRGLCNFLMSDEEYDDRTARVLIGHISKKMNKQTFPEHCSLCKEILPFTDRKQAVCSNGHIWLRCFLTYQSCQSLIYRRCLLHDSIARHPAPEDPDWIKRLLQSPCPFCDSPVF
B7: LUC7L3 (protein, UniProt O95232 1-432)
chain: MISAAQLLDELMGRDRNLAPDEKRSNVRWDHESVCKYYLCGFCPAELFTNTRSDLGPCEKIHDENLRKQYEKSSRFMKVGYERDFLRYLQSLLAEVERRIRRGHARLALSQNQQSSGAAGPTGKNEEKIQVLTDKIDVLLQQIEELGSEGKVEEAQGMMKLVEQLKEERELLRSTTSTIESFAAQEKQMEVCEVCGAFLIVGDAQSRVDDHLMGKQHMGYAKIKATVEELKEKLRKRTEEPDRDERLKKEKQEREEREKEREREREERERKRRREEEEREKERARDRERRKRSRSRSRHSSRTSDRRCSRSRDHKRSRSRERRRSRSRDRRRSRSHDRSERKHRSRSRDRRRSKSRDRKSYKHRSKSRDREQDRKSKEKEKRGSDDKKSSVKSGSREKQSEDTNTESKESDTKNEVNGTSEDIKSEGDTQSN
B8: DARS (protein, UniProt P14868 1-501)
chain: MPSASASRKSQEKPREIMDAAEDYAKERYGISSMIQSQEKPDRVLVRVRDLTIQKADEVVWVRARVHTSRAKGKQCFLVLRQQQFNVQALVAVGDHASKQMVKFAANINKESIVDVEGVVRKVNQKIGSCTQQDVELHVQKIYVISLAEPRLPLQLDDAVRPEAEGEEEGRATVNQDTRLDNRVIDLRTSTSQAVFRLQSGICHLFRETLINKGFVEIQTPKIISAASEGGANVFTVSYFKNNAYLAQSPQLYKQMCICADFEKVFSIGPVFRAEDSNTHRHLTEFVGLDIEMAFNYHYHEVMEEIADTMVQIFKGLQERFQTEIQTVNKQFPCEPFKFLEPTLRLEYCEALAMLREAGVEMGDEDDLSTPNEKLLGHLVKEKYDTDFYILDKYPLAVRPFYTMPDPRNPKQSNSYDMFMRGEEILSGAQRIHDPQLLTERALHHGIDLEKIKAYIDSFRFGAPPHAGGGIGLERVTMLFLGLHNVRQTSMFPRDPKRLTP

By UniProt entry, the sequences of proteins in these tests, tags left out.
UniProt P03372: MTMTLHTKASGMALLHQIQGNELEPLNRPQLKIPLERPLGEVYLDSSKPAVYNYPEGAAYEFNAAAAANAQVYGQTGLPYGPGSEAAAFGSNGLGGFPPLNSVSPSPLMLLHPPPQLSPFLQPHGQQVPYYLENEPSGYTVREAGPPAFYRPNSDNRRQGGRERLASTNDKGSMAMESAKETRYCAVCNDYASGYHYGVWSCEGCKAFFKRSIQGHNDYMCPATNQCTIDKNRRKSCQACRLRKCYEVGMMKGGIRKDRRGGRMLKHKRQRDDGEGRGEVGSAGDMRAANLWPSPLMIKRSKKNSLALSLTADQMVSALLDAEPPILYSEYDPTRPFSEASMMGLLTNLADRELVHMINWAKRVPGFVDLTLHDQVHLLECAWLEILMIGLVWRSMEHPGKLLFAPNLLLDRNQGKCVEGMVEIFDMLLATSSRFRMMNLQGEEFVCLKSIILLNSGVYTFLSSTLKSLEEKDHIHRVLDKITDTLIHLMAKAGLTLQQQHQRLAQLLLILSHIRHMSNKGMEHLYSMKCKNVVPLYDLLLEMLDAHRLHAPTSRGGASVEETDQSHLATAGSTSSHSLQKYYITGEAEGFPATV

The text below walks through data of paper PMC5548489.

These are yes or no findings as the source states them, for the method shown. Binding seen in cells or lysates may run through a third protein. Here binding means that the protein was enriched with, or labelled near, the bait; the list need not be complete. Where a sequence is shown, tags or fusion partners need not be part of it.

This experiment deals with estrogen receptor alpha (ER) (human (endogenous in MCF-7 and ZR-75)) (UniProt P03372). Description: affinity purification with mass spectrometry; anti-ER antibody (Santa Cruz sc-8002) on Dynabeads Protein G, 1.5 mg lysate of MCF-7 or ZR-75 cells overnight at 4°C; cells starved, vehicle or 10 µM ERX-11 for 2 hr, then 10 nM E2 for 2 hr; the named proteins are ER binders whose co-precipitation was disrupted by ERX-11.
In the case of B1, the binding entry was “binds”.

In the case of B2, the binding entry is “binds”.

For B3, the binding result is reported as “binds”.

As to B4, the binding result is “binds”.

Consider B5, for which the binding entry is recorded as “binds”.

In the case of B6, the binding result was “binds”.

For B7, the binding entry is given as “binds”.

B8: the binding result is listed as “binds”.
